Assay results published in PubChem BioAssay (Tox21).
Values joined by “and” are separate entries in the source; they are usually repeats but may differ in a detail not shown here. Equal entries are not always repeated. Inconclusive results, whose numbers are uncertain, are shown with a selection of clear calls. Where the call is inconclusive, the potency comes from a doubtful curve fit. Where a structure was tested more than once in an assay, its records may differ in their call. Active and inactive are the calls of the source. Unless noted, calls follow the shape of the dose curve; as a rule, active = well fitted curve in the direction sought with a large enough effect in the repeat runs; inconclusive = weak or mixed curves; inactive = no such curve, though single readings can be large; an effect the other way counts as inactive or inconclusive.

Protein sequences, listed by entry. Tags and fused reporters are not part of them. Lines headed by an entry give the natural chain unless they say otherwise; changes in a name come on top.
UniProt O75469: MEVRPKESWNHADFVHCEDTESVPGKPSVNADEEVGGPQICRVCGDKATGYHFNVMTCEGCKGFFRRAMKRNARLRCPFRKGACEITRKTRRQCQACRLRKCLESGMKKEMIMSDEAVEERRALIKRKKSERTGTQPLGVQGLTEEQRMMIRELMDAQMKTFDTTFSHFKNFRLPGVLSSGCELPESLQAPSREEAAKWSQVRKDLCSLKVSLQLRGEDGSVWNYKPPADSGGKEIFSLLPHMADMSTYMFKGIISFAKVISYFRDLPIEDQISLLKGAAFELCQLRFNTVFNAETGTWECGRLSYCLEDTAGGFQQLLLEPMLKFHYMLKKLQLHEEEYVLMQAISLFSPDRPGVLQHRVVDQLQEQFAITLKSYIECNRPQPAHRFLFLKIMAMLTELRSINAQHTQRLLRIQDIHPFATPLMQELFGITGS
UniProt P22303: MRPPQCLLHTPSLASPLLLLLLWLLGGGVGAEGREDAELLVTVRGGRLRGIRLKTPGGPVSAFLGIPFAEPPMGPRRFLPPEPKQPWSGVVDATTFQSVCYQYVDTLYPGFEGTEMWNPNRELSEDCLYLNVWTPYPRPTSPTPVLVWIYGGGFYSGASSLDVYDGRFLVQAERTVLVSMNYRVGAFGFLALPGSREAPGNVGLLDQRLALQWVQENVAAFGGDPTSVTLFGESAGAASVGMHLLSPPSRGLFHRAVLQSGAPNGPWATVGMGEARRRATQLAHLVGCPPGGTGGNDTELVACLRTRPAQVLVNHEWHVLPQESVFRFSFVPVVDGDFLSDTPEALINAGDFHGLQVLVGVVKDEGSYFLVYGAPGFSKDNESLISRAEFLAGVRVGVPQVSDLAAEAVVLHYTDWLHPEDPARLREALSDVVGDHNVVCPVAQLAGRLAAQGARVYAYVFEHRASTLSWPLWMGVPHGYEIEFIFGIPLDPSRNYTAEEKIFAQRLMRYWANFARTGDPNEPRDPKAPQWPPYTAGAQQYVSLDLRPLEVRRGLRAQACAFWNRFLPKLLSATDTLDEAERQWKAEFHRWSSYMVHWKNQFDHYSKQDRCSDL
UniProt P10635, whole entry, looked up: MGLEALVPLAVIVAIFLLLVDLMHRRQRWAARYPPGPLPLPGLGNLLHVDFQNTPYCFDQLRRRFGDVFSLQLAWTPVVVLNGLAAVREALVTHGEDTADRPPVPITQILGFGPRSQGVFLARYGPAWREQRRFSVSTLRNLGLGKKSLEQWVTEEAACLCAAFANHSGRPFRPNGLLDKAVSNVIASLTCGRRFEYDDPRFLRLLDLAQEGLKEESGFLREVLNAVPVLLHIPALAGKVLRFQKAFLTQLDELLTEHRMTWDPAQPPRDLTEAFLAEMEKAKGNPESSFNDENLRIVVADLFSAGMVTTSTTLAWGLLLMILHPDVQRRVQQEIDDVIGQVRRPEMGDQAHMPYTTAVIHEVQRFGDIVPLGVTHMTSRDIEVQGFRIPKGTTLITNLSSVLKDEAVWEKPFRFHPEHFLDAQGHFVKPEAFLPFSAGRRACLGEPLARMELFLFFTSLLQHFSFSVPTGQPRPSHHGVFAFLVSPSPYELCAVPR
UniProt P33261, whole entry, looked up: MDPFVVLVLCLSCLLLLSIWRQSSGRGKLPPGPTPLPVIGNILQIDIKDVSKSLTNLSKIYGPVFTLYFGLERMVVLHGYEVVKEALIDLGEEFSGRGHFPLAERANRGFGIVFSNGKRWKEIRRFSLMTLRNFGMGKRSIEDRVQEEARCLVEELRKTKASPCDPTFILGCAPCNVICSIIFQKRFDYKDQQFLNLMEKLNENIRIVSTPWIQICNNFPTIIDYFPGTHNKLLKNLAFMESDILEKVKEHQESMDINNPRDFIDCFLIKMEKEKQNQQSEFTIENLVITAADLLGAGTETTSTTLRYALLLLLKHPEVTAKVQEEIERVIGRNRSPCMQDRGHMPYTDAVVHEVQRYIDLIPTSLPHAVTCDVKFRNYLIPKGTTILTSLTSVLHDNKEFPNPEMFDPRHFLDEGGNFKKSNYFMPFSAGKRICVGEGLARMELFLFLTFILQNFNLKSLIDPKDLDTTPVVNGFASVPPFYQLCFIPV

Target: Nuclear receptor subfamily 1 group I member 2 (Homo sapiens) (UniProt O75469)
Assay: Human pregnane X receptor (PXR) small molecule agonists, qHTS assay (AID 1346982); also: nearly all actives have a fitted effect of over 35% in size
Conditions: PXR-Luc HepG2, CYP3A4 luciferase reporter, 24 h; series mostly up to 92.4 µM
Method in brief: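 Stable HepG2 line reporting PXR-mediated CYP3A4 expression via luciferase. Treatment: 24 hr with compounds in DMSO at 37 C. Detection: ONE-Glo luminescence.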
Potency is read from the fitted curve at half-maximal effect.

| SMILES | Potency |
| --- | --- |
| CC(C)(C)N(NC(=O)c1ccc(Cl)cc1)C(=O)c1ccccc1 | inconclusive: 30.5 µM [activator, partial curve] |
| O=[N+]([O-])c1cc(C(F)(F)F)cc([N+](=O)[O-])c1Cl | inconclusive: 27.4 µM [activator, partial curve, poor fit] |
| O=C(Nc1ccccc1)Nc1cnns1 | inconclusive: 68.5 µM [activator, partial curve, poor fit] |
| Cc1ccccc1OP(=O)(Oc1ccccc1C)Oc1ccccc1C | active: 27.4 µM |
| O=Cc1ccco1 | inconclusive: 59.1 µM [activator, partial curve] |
| CCCCCCn1cc[n+](C)c1 | inconclusive: 9.9 µM [activator, partial curve] [middle of 4 runs] |
| CN(C)c1ccc(N(C)C)cc1 | inconclusive: 68.8 µM [activator, single point] |
| COP(=S)(OC)SCN1C(=O)c2ccccc2C1=O | inconclusive: 61.6 µM [activator, partial curve] |
| Cc1cc(Cl)ccc1N=CN(C)C | inconclusive: 48.6 µM [activator, partial curve, poor fit] and inconclusive: 61.1 µM [activator, partial curve, poor fit] |
| COP(=S)(OC)Oc1ccc(Sc2ccc(OP(=S)(OC)OC)cc2)cc1 | active: 24.3 µM and inactive |
| CC(C)N(C(=O)COc1nnc(C(F)(F)F)s1)c1ccc(F)cc1 | inconclusive: 19.3 µM [activator] |
| NNc1ccccc1 | inconclusive: 53.9 µM [activator, partial curve, poor fit] |
| CC(Cl)C(C)Cl (centres undefined) | inactive |
| CCC(OC(C)=O)C(CC(C)NC)(c1ccccc1)c1ccccc1 (centres undefined) | inconclusive: 21.9 µM [activator, single point] |
| CCC(=O)C(CC(C)N(C)C)(c1ccccc1)c1ccccc1 (centres undefined) | inconclusive: 23.4 µM [activator, partial curve] |

Target: Acetylcholinesterase (Homo sapiens) (UniProt P22303)
Assay: Acetylcholinesterase (AChE) small molecule antagonists: colormetric cell-based qHTS assay (AID 1347395; calls by dose curve; also: nearly all actives have a fitted effect of over 30% in size)
Conditions: SH-SY5Y cells AChE activity, colorimetric (Ellman); series mostly up to 115 µM
Method in brief: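 Endogenous AChE of human neuroblastoma SH-SY5Y cells was measured with an Ellman-type DTNB/acetylthiocholine mix. Compound pretreatment lasted 30 min at 37 C; substrate reaction ran 90 min at 37 C.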

| SMILES | Potency |
| --- | --- |
| COP(=S)(OC)Oc1cc(Cl)c(Br)cc1Cl | inconclusive: 79.6 µM [inhibitor, partial curve, poor fit] |
| Oc1ccc([C@H]2CNCc3c2ccc(O)c3O)cc1O | inconclusive: 34.7 µM [inhibitor, partial curve] |
| COP(=S)(OC)SCN1C(=O)c2ccccc2C1=O | inconclusive: 34.7 µM [inhibitor, partial curve] |
| O=[N+]([O-])c1cccc2cccc([N+](=O)[O-])c12 | active: 20.1 µM |
| Cn1c(N)nc2c3cccnc3ccc21 | inconclusive: 60.1 µM [inhibitor, partial curve] |

Target: Acetylcholinesterase (Homo sapiens) (UniProt P22303)
Assay: Acetylcholinesterase (AChE) small molecule antagonists: fluorescence cell-based qHTS assay (AID 1347398; calls by dose curve; also: nearly all actives have a fitted effect of over 50% in size)
Conditions: SH-SY5Y cells; Potency: AChE activity; series mostly up to 115 µM
Method in brief: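 Cellular AChE inhibition: SH-SY5Y cells treated with test chemical for 30 min at 37 C, then acetylthiocholine hydrolysis followed over 40 min at room temperature via thiocholine-reactive Thiolite Green fluorescence (490/520 nm).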

| SMILES | Potency |
| --- | --- |
| Oc1ccc([C@H]2CNCc3c2ccc(O)c3O)cc1O | active: 30.9 µM |
| CN(C)c1ccc(N(C)C)cc1 | active: 40 µM |
| COP(=S)(OC)SCN1C(=O)c2ccccc2C1=O | inconclusive: 38.9 µM [inhibitor, single point] |
| O=[N+]([O-])c1cccc2cccc([N+](=O)[O-])c12 | inconclusive: 17.9 µM [inhibitor, full curve] |
| CC(C)N(C(=O)COc1nnc(C(F)(F)F)s1)c1ccc(F)cc1 | inconclusive: 35.6 µM [inhibitor, partial curve] |
| CCC(=O)C(CC(C)N(C)C)(c1ccccc1)c1ccccc1 (centres undefined) | inconclusive: 8 µM [inhibitor, partial curve, poor fit] and inconclusive: 31.5 µM [inhibitor, partial curve] |

Target: Cytochrome P450 2D6 (Homo sapiens) (UniProt P10635)
Assay: Cytochrome P450 Family 2 Subfamily D Member 6 (CYP2D6) small molecule antagonists: luciferase reporter qHTS assay (AID 1671196); also: nearly all actives have a fitted effect of over 50% in size
Conditions: P450-Glo CYP2D6 enzyme assay, luciferin luminescence, 1 h; series mostly up to 115 µM
Method in brief: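 Chemicals tested for interference with CYP2D6 activity; proluciferin substrate, NADPH regeneration, 1 h at room temperature, luminescent detection.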

| SMILES | Potency |
| --- | --- |
| N#CC(C#N)=C(C#N)C#N | inconclusive: 33.1 µM [inhibitor, partial curve] |
| Cc1ccccc1OP(=O)(Oc1ccccc1C)Oc1ccccc1C | inconclusive: 56.6 µM [inhibitor, partial curve, poor fit] |
| CC(C)(C)c1cc([N+](=O)[O-])cc(C(C)(C)C)c1O | inconclusive: 35.6 µM [inhibitor, partial curve] |
| ClCc1ccccc1CCl | inconclusive: 39.9 µM [inhibitor, partial curve] |
| Oc1ccc(Cl)c(Cl)c1 | inconclusive: 78.4 µM [inhibitor, single point] |
| Cc1cc(Cl)ccc1N=CN(C)C | active: 35.6 µM |
| CC(C)CCCCCOC(=O)c1ccccc1C(=O)OCCCCCC(C)C | active: 27.9 µM |
| CCCCCOC(=O)c1ccccc1C(=O)OCCCCC | inconclusive: 56.2 µM [inhibitor, partial curve] |
| NNc1ccccc1 | inconclusive: 63.3 µM [inhibitor, partial curve, poor fit] |

Target: Cytochrome P450 2C19 (Homo sapiens) (UniProt P33261)
Assay: Cytochrome P450 Family 2 Subfamily C Member 19 (CYP2C19) small molecule antagonists: luciferase reporter qHTS assay (AID 1671197); also: nearly all actives have a fitted effect of over 65% in size
Conditions: P450-Glo CYP2C19 enzyme, luciferin luminescence, 1 h; series mostly up to 115 µM
Method in brief: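 Enzyme-substrate mix with proluciferin substrate (P450-Glo CYP2C19 system) preincubated with compounds 10 min at room temperature; NADPH regeneration solution added, 37C for 1 h; detection reagent stops reaction, luminescence read after 20 min. Ketoconazole positive control.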

| SMILES | Potency |
| --- | --- |
| O=Cc1ccco1 | inactive |
| CCCCCCn1cc[n+](C)c1 | inconclusive: 98.6 µM [inhibitor, single point] |
| Oc1ccc(Cl)c(Cl)c1 | inconclusive: 98.7 µM [inhibitor, single point] |
| CCCCCOC(=O)c1ccccc1C(=O)OCCCCC | active: 11.2 µM and active: 7.96 µM |
| CC(C)N(C(=O)COc1nnc(C(F)(F)F)s1)c1ccc(F)cc1 | active: 1 µM |
| CC(Cl)(Cl)C(=O)O | inconclusive: 71.2 µM [inhibitor, partial curve, poor fit] and inconclusive: 89.4 µM [inhibitor, single point] |
| NNc1ccccc1 | inconclusive: 38.9 µM [inhibitor, single point] |
| CCC(=O)C(CC(C)N(C)C)(c1ccccc1)c1ccccc1 (centres undefined) | inconclusive: 39.7 µM [inhibitor, partial curve, poor fit] and inconclusive: 54.2 µM [inhibitor, single point] |
| CC1=C2C[C@H]3[C@@H](CC=C4C[C@@H](O)CC[C@@]43C)[C@@H]2CC[C@]12O[C@@H]1C[C@H](C)CN[C@H]1[C@H]2C | inactive |
